# From US20230058895A1, “PHYSIOLOGICALLY ACCEPTABLE EUTECTIC MIXTURES OF CANNABIDIOL” (priority 2021, published 2023)
# Tests used:
# [1] = existing oral dosage forms (e.g., Epidiolex, softgels, tablets, edibles); Millar et al. 2020; cited from earlier work
# [2] = Solubility of CBD and CBD EM in triglycerides / lipids (MCT or LCT oils); type: physicochemical; conditions: ambient temperature, CBD without EM
structure (smiles),measurement,setting,value
"C=C(C)[C@@H]1CCC(C)=C[C@H]1c1c(O)cc(CCCCC)cc1O [CBD, cannabidiol]",bioavailability (BA),[1],about 6%
same,CBD solubility in MCT or LCT oils,[2],25-35 % w/w
